# Source: PubChem BioAssay (NCATS)
# Inconclusive results, whose numbers are uncertain, are shown with a selection of clear calls. For part of these data: Potencies of inconclusive entries are doubtful fits and often do not repeat. The source made the active and inactive calls. Calls follow the shape of the dose curve; as a rule, active = well fitted curve in the direction sought with a large enough effect; inconclusive = small, poorly fitted or top-dose-only effect, or another doubt; inactive = no such curve, though single readings can be large; an effect the other way counts as inactive or inconclusive.
# Legend:
# [1] = Quantitative High-Throughput drug screen in 47 multiple myeloma cell lines against the NCATS MIPE library collection: NCIH929_DSMZ cell viability assay (AID 1918978); also: nearly all actives have a fitted effect of over 35% in size
# In short: (§1)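 Cells were exposed to library compounds for 48 hours, after which ATP was measured by CellTiter-Glo. Signal was taken as median relative luminescence units.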
# [2] = Quantitative High-Throughput drug screen in 47 multiple myeloma cell lines against the NCATS MIPE library collection: OCIMY1_PLB cell viability assay (AID 1918979); settings: OCI-MY1 myeloma viability, CellTiter-Glo ATP, 48 h; viability: at 45.8 µM (top of the series) unless noted; also: nearly all actives have a fitted effect of over 35% in size
# In short: as §1
# [3] = Quantitative High-Throughput drug screen in 47 multiple myeloma cell lines against the NCATS MIPE library collection: MM1S_ATCC cell viability assay (AID 1918980); also: nearly all actives have a fitted effect of over 45% in size
# In short: as §1
# [4] = Quantitative High-Throughput drug screen in 47 multiple myeloma cell lines against the NCATS MIPE library collection: LP1_DSMZ cell viability assay (AID 1918982); settings: LP1 myeloma viability, CellTiter-Glo ATP luminescence, 48 h; viability (% of control): at 45.8 µM (top of the series); also: nearly all actives have a fitted effect of over 35% in size
# In short: as §1
# [5] = Quantitative High-Throughput drug screen in 47 multiple myeloma cell lines against the NCATS MIPE library collection: L363_DSMZ cell viability assay (AID 1918984); settings: L363 myeloma viability, CellTiter-Glo ATP luminescence, 48 h; viability (% of control): at 45.8 µM (top of the series); also: nearly all actives have a fitted effect of over 40% in size
# In short: as §1
# [6] = Quantitative High-Throughput drug screen in 47 multiple myeloma cell lines against the NCATS MIPE library collection: KMS34_JCRB cell viability assay (AID 1918985); settings: KMS34 myeloma viability, CellTiter-Glo ATP luminescence, 48 h; viability, percent of control: at 45.8 µM (top of the series); also: nearly all actives have a fitted effect of over 40% in size
# In short: as §1
# [7] = Quantitative High-Throughput drug screen in 47 multiple myeloma cell lines against the NCATS MIPE library collection: OCIMY7_PLB cell viability assay (AID 1918987); settings: OCI-MY7 myeloma viability, CellTiter-Glo ATP, 48 h; viability (% of DMSO): at 45.8 µM (top of the series); also: nearly all actives have a fitted effect of over 65% in size
# In short: as §1
# [8] = Quantitative High-Throughput drug screen in 47 multiple myeloma cell lines against the NCATS MIPE library collection: OPM1_PLB cell viability assay (AID 1918989); also: nearly all actives have a fitted effect of over 40% in size
# In short: as §1
# [9] = Quantitative High-Throughput drug screen in 47 multiple myeloma cell lines against the NCATS MIPE library collection: SKMM1_PLB cell viability assay (AID 1919863); settings: SKMM1 myeloma viability, CellTiter-Glo ATP, 48 h; viability: stronger effect = lower value; also: nearly all actives have a fitted effect of over 35% in size
# In short: as §1
# [10] = Quantitative High-Throughput drug screen in 47 multiple myeloma cell lines against the NCATS MIPE library collection: U266_ATCC cell viability assay (AID 1919864); settings: U266 myeloma viability, CellTiter-Glo ATP luminescence, 48 h; viability (% of DMSO control): at 45.8 µM (top of the series); also: nearly all actives have a fitted effect of over 35% in size
# In short: as §1
# [11] = Quantitative High-Throughput drug screen in 47 multiple myeloma cell lines against the NCATS MIPE library collection: XG6_PLB cell viability assay (AID 1919865); settings: XG6 myeloma viability, CellTiter-Glo ATP luminescence, 48 h; viability (% of control): at 45.8 µM (top of the series); also: nearly all actives have a fitted effect of over 40% in size
# In short: as §1
# [12] = Quantitative High-Throughput drug screen in 47 multiple myeloma cell lines against the NCATS MIPE library collection: XG1_PLB cell viability assay (AID 1919866); settings: CellTiter-Glo ATP, 48 h; viability: at 45.8 µM (top of the series); also: nearly all actives have a fitted effect of over 35% in size
# In short: as §1
# [13] = Quantitative High-Throughput drug screen in 47 multiple myeloma cell lines against the NCATS MIPE library collection: KMS26_JCRB cell viability assay (AID 1918975); settings: KMS26 myeloma cells viability, CellTiter-Glo ATP, 48 h; viability (% of DMSO): at 45.8 µM (top of the series); also: nearly all actives have a fitted effect of over 45% in size
# In short: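 Luminescent ATP measurement with CellTiter-Glo gives viability, scaled between DMSO-only wells (100%) and media-only wells (0%). Cells, 500 per well, faced library compounds for 48 hours at 37C.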
# [14] = Quantitative High-Throughput drug screen in 47 multiple myeloma cell lines against the NCATS MIPE library collection: MMM1_PLB cell viability assay (AID 1918976); also: nearly all actives have a fitted effect of over 35% in size
# In short: as §1
# [15] = Quantitative High-Throughput drug screen in 47 multiple myeloma cell lines against the NCATS MIPE library collection: MOLP8_DSMZ cell viability assay (AID 1918977); settings: MOLP8 myeloma viability, CellTiter-Glo ATP luminescence, 48 h; viability (% of control): at 45.8 µM (top of the series); also: nearly all actives have a fitted effect of over 45% in size
# In short: as §1
# [16] = Quantitative High-Throughput drug screen in 47 multiple myeloma cell lines against the NCATS MIPE library collection: MM1R_ATCC cell viability assay (AID 1918981); also: nearly all actives have a fitted effect of over 35% in size
# In short: as §1
# [17] = Quantitative High-Throughput drug screen in 47 multiple myeloma cell lines against the NCATS MIPE library collection: KMS28PE_JCRB cell viability assay (AID 1918983); also: nearly all actives have a fitted effect of over 35% in size
# In short: as §1
# [18] = Quantitative High-Throughput drug screen in 47 multiple myeloma cell lines against the NCATS MIPE library collection: OCIMY5_PLB cell viability assay (AID 1918988); settings: OCI-MY5 myeloma viability, ATP luminescence, 48 h; viability, % of control: at 45.8 µM (top of the series); also: nearly all actives have a fitted effect of over 65% in size
# In short: as §1
# [19] = Quantitative High-Throughput drug screen in 47 multiple myeloma cell lines against the NCATS MIPE library collection: KMS21BM_JCRB cell viability assay (AID 1918974); settings: ATP luminescence, 48 h; viability: at 45.8 µM (top of the series) unless noted
# In short: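 CellTiter-Glo ATP luminescence gave viability after 48 h compound treatment at 37C of 500 multiple myeloma cells per well. Normalisation used DMSO-only wells as 100% and media-only wells as 0% viability; primary qHTS of approved and investigational drugs.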
# Potency is read from the fitted curve at half-maximal effect.
smiles,measurement,setting,value
CCOc1cc(C(=O)Nc2ccc(Cl)c(-c3nc4ccccc4[nH]3)c2)cc(OCC)c1OCC,Potency,[1],"inconclusive: 1.66 µM [cytotoxic, full curve]"
same,Potency,[2],"inconclusive: 0.0021 µM [rising, full curve, poor fit]"
same,Potency,[3],"inconclusive: 18.7 µM [cytotoxic, partial curve]"
same,Potency,[4],active: 14.8 µM
same,Potency,[5],"inconclusive: 16.6 µM [cytotoxic, partial curve, poor fit]"
same,Potency,[6],inactive
same,Potency,[7],active: 0.418 µM
same,Potency,[8],"inconclusive: 20.9 µM [cytotoxic, partial curve]"
same,Potency,[9],"inconclusive: 16.6 µM [cytotoxic, partial curve, poor fit]"
same,Potency,[10],"inconclusive: 14.8 µM [cytotoxic, partial curve, poor fit]"
same,Potency,[11],"inconclusive: 4.18 µM [cytotoxic, full curve]"
same,Potency,[12],"inconclusive: 2.35 µM [cytotoxic, partial curve]"
Cc1cc(C(C)Nc2ccccc2)c2nc(N3CCOCC3)cc(=O)n2c1 (centres undefined),viability (% of DMSO),[13],inconclusive: 100% [cytotoxic]
same,Potency,[14],inactive
same,Potency,[15],inactive
same,Potency,[1],"inconclusive: 14.8 µM [cytotoxic, partial curve]"
same,Potency,[16],"inconclusive: 0.0033 µM [rising, full curve, poor fit]"
same,Potency,[4],"inconclusive: 20.9 µM [cytotoxic, single point]"
same,Potency,[17],"inconclusive: 0.0743 µM [rising, partial curve, poor fit]"
same,Potency,[5],"inconclusive: 18.7 µM [cytotoxic, partial curve, poor fit]"
same,Potency,[6],"inconclusive: 23.5 µM [cytotoxic, single point]"
same,Potency,[18],"inconclusive: 0.833 µM [cytotoxic, full curve, poor fit]"
same,Potency,[9],"inconclusive: 0.0526 µM [rising, full curve]"
same,Potency,[12],"inconclusive: 2.64 µM [cytotoxic, full curve]"
CN1CCCN(C(=O)c2cccc(-c3ccc(C=C4C(=O)Nc5ccc(Cl)cc54)o3)c2)CC1,Potency,[19],active: 7.43 µM
same,Potency,[2],"inconclusive: 37.2 µM [cytotoxic, single point]"
same,Potency,[4],"inconclusive: 23.5 µM [cytotoxic, partial curve, poor fit]"
same,Potency,[17],"inconclusive: 33.2 µM [cytotoxic, single point]"
same,Potency,[5],active: 6.62 µM
same,Potency,[18],active: 9.35 µM
same,Potency,[9],active: 14.8 µM
same,Potency,[11],active: 7.43 µM
CCN(CC)CCNC(=O)c1ccc2nc(-c3ccccc3)c(-c3ccc(CN4CCC(n5c(=O)[nH]c6ccccc65)CC4)cc3)nc2c1,Potency,[19],active: 1.18 µM
same,Potency,[3],active: 8.33 µM
same,Potency,[5],active: 0.418 µM
same,Potency,[8],active: 0.743 µM
same,Potency,[11],active: 0.296 µM
NC(N)=NC(=O)c1nc(Cl)c(N)nc1N,Potency,[13],"inconclusive: 33.2 µM [rising, single point]"
same,Potency,[15],inactive
same,Potency,[17],"inconclusive: 0.0019 µM [rising, full curve, poor fit]"
same,Potency,[5],"inconclusive: 0.105 µM [cytotoxic, full curve, poor fit]"
same,Potency,[6],"inconclusive: 0.0083 µM [rising, full curve]"
same,Potency,[7],inconclusive: 0.001 µM
same,Potency,[18],"inconclusive: 0.0053 µM [rising, full curve, poor fit]"
same,Potency,[8],"inconclusive: 2.64 µM [cytotoxic, partial curve, poor fit]"
same,Potency,[9],"inconclusive: 0.0418 µM [rising, full curve, poor fit]"
same,Potency,[10],inactive
same,Potency,[11],active: 7.43 µM
COc1cc2c(Nc3ccc(NC(=O)c4ccccc4)cc3)ncnc2cc1OCCCN1CCOCC1,Potency,[14],"inconclusive: 20.9 µM [cytotoxic, partial curve, poor fit]"
same,Potency,[15],"inconclusive: 37.2 µM [cytotoxic, single point]"
same,Potency,[2],active: 23.5 µM
same,Potency,[3],"inconclusive: 29.6 µM [cytotoxic, single point]"
same,Potency,[4],"inconclusive: 26.4 µM [cytotoxic, single point]"
same,Potency,[17],"inconclusive: 37.2 µM [cytotoxic, single point]"
same,Potency,[5],inactive
same,Potency,[6],"inconclusive: 23.5 µM [cytotoxic, partial curve, poor fit]"
same,Potency,[8],active: 20.9 µM
same,Potency,[9],"inconclusive: 37.2 µM [cytotoxic, single point]"
C[C@@H](NC(=O)c1ncnc(N)c1Cl)c1ncc(C(=O)Nc2cc(C(F)(F)F)c(Cl)cn2)s1,Potency,[13],"inconclusive: 2.96 µM [cytotoxic, full curve, poor fit]"
same,Potency,[14],"inconclusive: 20.9 µM [cytotoxic, partial curve, poor fit]"
same,Potency,[15],"inconclusive: 14.8 µM [cytotoxic, partial curve, poor fit]"
same,Potency,[1],"inconclusive: 5.26 µM [cytotoxic, full curve]"
same,Potency,[2],active: 2.96 µM
same,Potency,[17],active: 16.6 µM
same,Potency,[5],"inconclusive: 5.26 µM [cytotoxic, partial curve, poor fit]"
same,Potency,[7],active: 7.43 µM
same,Potency,[18],active: 9.35 µM
same,Potency,[8],"inconclusive: 2.35 µM [cytotoxic, partial curve, poor fit]"
same,Potency,[11],"inconclusive: 5.9 µM [cytotoxic, full curve]"

# Some of the entries so far, as tab-separated lines.
smiles	measurement	setting	value
Cc1cc(C(C)Nc2ccccc2)c2nc(N3CCOCC3)cc(=O)n2c1 (centres undefined)	Potency	[18]	inconclusive: 0.833 µM [cytotoxic, full curve, poor fit]
CN1CCCN(C(=O)c2cccc(-c3ccc(C=C4C(=O)Nc5ccc(Cl)cc54)o3)c2)CC1	Potency	[5]	active: 6.62 µM
C[C@@H](NC(=O)c1ncnc(N)c1Cl)c1ncc(C(=O)Nc2cc(C(F)(F)F)c(Cl)cn2)s1	Potency	[18]	active: 9.35 µM
